Part of at least one peptide drawing is inferred or uncertain, most often the ends. Marks after values point to notes of the source that are not given here.
What was measured:
Assay type in all cases: in vivo, rat
[1] = system: ovariectomized female SD rats; assay: Bone mineral density of distal third femur in ovariectomized rats, transdermal iontophoresis three times/week (Example 2); conditions: one month; for Bone mineral density: 3 x (30 min current, 45 min rest) per day, 3 times/week, DXA, average of 5 or 6
[2] = system: ovariectomized female SD rats; assay: Bone mineral density of distal third of femur in ovariectomized rats, subcutaneous injection once or three times per day, three times/week (Reference Example 3); conditions: 35 μg/kg/week; for Bone mineral density: one month, DXA, average of 6
[3] = system: ovariectomized female SD rats; assay: Bone mineral density of distal third of femur in ovariectomized rats, subcutaneous injection 3 times/day three times/week vs once/day everyday (Reference Example 4); conditions: one month; for Bone mineral density: DXA, average of 6
[4] = system: ovariectomized female SD rats; assay: Bone mineral density in ovariectomized rats, subcutaneous injection 3 times in one day, once every week for 3 months (Reference Example 5); conditions: for Bone mineral density: once every week, mean ± SE, n = 7
[5] = system: ovariectomized female SD rats; assay: Bone mineral density of distal third of femur in ovariectomized rats, injection once/day at different weekly frequency (Reference Example 2); conditions: one month; for Bone mineral density: injection one time per day, 35 μg/kg/week, DXA, average of 6

CC[C@H](C)[C@H](NC(=O)[C@H](CCC(=O)O)NC(=O)[C@H](CO)NC(=O)[C@@H](NC(=O)[C@@H](N)CO)C(C)C)C(=O)N[C@@H](CCC(N)=O)C(=O)N[C@@H](CC(C)C)C(=O)N[C@@H](CCSC)C(=O)N[C@@H](Cc1c[nH]cn1)C(=O)N[C@@H](CC(N)=O)C(=O)N[C@@H](CC(C)C)C(=O)NCC(=O)N[C@@H](CCCCN)C(=O)N[C@@H](Cc1c[nH]cn1)C(=O)N[C@@H](CC(C)C)C(=O)N[C@@H](CC(N)=O)C(=O)N[C@@H](CO)C(=O)N[C@@H](CCSC)C(=O)N[C@@H](CCC(=O)O)C(=O)N[C@@H](CCCNC(=N)N)C(=O)N[C@H](C(=O)N[C@@H](CCC(=O)O)C(=O)N[C@@H](Cc1c[nH]c2ccccc12)C(=O)N[C@@H](CC(C)C)C(=O)N[C@@H](CCCNC(=N)N)C(=O)N[C@@H](CCCCN)C(=O)N[C@@H](CCCCN)C(=O)N[C@@H](CC(C)C)C(=O)N[C@@H](CCC(N)=O)C(=O)N[C@@H](CC(=O)O)C(=O)N[C@H](C(=O)N[C@@H](Cc1c[nH]cn1)C(=O)N[C@@H](CC(N)=O)C(=O)N[C@@H](Cc1ccccc1)C(=O)O)C(C)C)C(C)C [hPTH(1-34)]
Bone mineral density ([1]; iontophoresis 40 μg/patch): 133 mg/cm^2 | Bone mineral density ([1]; iontophoresis 120 μg/patch): 143** mg/cm^2 | Bone mineral density ([1]; iontophoresis 400 μg/patch): 150** mg/cm^2 | bone mineral density vs dose (in words) ([1]; iontophoresis 40, 120, 400 μg/patch, three times/week): increased depending on the dose | bone mineral density vs ovariectomized control group (in words) ([2]; one or three times/day): a significant and high bone mineral density was obtained | Bone mineral density ([2]; s.c. 1 time/day): 144 mg/cm^2 | Bone mineral density ([2]; s.c. 3 times/day at 1 hour interval): 153** mg/cm^2 | bone mineral density vs control ovariectomized group (in words) ([3]; 7 or 35 μg/kg/week): significantly high bone mineral density | Bone mineral density ([3]; s.c. 3 times/day (9 times/week), 7 μg/kg/week): 137 mg/cm^2 | Bone mineral density ([3]; s.c. 3 times/day (9 times/week), 35 μg/kg/week): 153** mg/cm^2 | Bone mineral density ([3]; s.c. once/day (7 times/week), 7 μg/kg/week): 141 mg/cm^2 | Bone mineral density ([3]; s.c. once/day (7 times/week), 35 μg/kg/week): 155** mg/cm^2 | bone mineral density vs ovariectomized control group (in words) ([4]; administered once every week): higher bone mineral density | Bone mineral density ([4]; s.c. 30 μg/kg/day (3 x 10 μg/kg at 1 hour interval)): 152 ± 3 mg/cm^2 | Bone mineral density ([4]; s.c. 120 μg/kg/day (3 x 40 μg/kg at 1 hour interval)): 159 ± 3 mg/cm^2 | Bone mineral density ([5]; 1 time/week (Wednesday)): 136 mg/cm^2 | Bone mineral density ([5]; 3 times/week): 144* mg/cm^2 | Bone mineral density ([5]; 7 times/week (everyday)): 154** mg/cm^2 | osteogenetic effect vs administration frequency ([5]; once, three or 7 times/week at 35 μg/kg/week): increased in proportion to the administration frequency

From patent US6526316B2, “Iontophoresis method” (Hisamitsu Pharmaceutical Co., Inc., priority 1997, dated 2003)
